Measured values reported in paper PMC8586017.
These are yes or no findings as the source states them, for the method shown. Some results given as binding are weak or reduced against the parent protein; the word gives no strength.

Protein sequences, listed by entry. Tags and fused reporters are not part of them.
UniProt Q9CXS4: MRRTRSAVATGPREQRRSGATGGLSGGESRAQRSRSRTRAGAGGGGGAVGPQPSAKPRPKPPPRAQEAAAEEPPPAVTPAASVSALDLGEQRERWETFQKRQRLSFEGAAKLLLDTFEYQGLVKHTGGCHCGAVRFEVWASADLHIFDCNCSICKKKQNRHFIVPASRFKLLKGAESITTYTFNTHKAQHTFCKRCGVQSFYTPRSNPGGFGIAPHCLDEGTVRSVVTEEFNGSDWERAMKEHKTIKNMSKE

Target: His6-CENP-V-eGFP (not stated (mouse Cenp-V cDNA cloned)) (UniProt Q9CXS4)
Experiment: TIRF microscopy, particle intensity distribution and photobleaching steps; motile CENP-V-eGFP particles on the lattice of taxol-stabilised microtubules; initial intensities (n = 249) compared with the intensity loss per GFP bleaching step (n = 50); both purified

**Q.** With “His6-CENP-V-eGFP (from UniProt Q9CXS4 1-252)” as the substance, how does the binding read?
**A.** The binding was “binds”.
